Assay results published in patent publication US20210254138A1, “SIALIC ACID TRANSPORTER PROTEINS AS BIOMARKERS AND DRUG TARGETS” (Quadram Institute Bioscience, priority 2018, published 2021).
At least one structure is not confirmed: it was looked up by name or label, or the drawing left a doubt.

By UniProt entry, the sequences of proteins in these tests, tags left out. Where a name states a change or a piece, a line headed by the entry shows the natural chain unless it says otherwise.
UniProt A7B558: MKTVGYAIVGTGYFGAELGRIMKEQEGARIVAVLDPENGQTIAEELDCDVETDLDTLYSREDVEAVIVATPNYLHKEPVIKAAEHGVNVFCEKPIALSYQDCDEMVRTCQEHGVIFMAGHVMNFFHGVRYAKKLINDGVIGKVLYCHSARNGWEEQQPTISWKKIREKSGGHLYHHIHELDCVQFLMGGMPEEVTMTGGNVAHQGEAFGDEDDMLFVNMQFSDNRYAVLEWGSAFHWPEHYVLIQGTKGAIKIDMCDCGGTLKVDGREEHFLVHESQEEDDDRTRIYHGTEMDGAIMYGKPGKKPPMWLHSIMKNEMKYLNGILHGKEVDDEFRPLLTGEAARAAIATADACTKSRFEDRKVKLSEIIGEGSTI

Target: T1, RUMGNA_02695 (RgNanOx, oxidoreductase) (Mediterraneibacter gnavus, UniProt A7B558)
T1 construct: the full length RgNanA and full length RUMGNA_02695 were amplified from R. gnavus ATCC 29149 gDNA; His6 (pHISTEV vector) (N); made in house; host or cells: E. coli BL21
Experiment: RUMGNA_02695 enzymatic activity assay
Format: biochemical, R. gnavus ATCC 29149
Settings: label = substrate incubated with the enzyme; NAD+/NADH
Description: To assay RUMGNA_02695 activity against 2,7-anhydro-Neu5Ac, the purified recombinant protein was incubated in 100 μl reactions at 37° C. overnight with 1 mM 2,7-anhydro-Neu5Ac, 50 mM sodium phosphate buffer pH 7.0 and 500 μM NADH, NAD, FAD or no cofactor. The reactions were dried using a Concentrator Plus (Eppendorf) for 1 h. Samples were then resuspended in 50 μl of water and 50 μl of reaction buffer (1.74 mg of 1,2-Diamino-4,5-methylenedioxybenzene dihydrochloride (Carbosynth, UK), 324.6 μl MilliQ water, 88.6 μl glacial acetic acid, 58.2 μl of β-Mercaptoethanol and 79.3 μl of sodium hydrosulphite) and incubated for 2 h at 55° C. in the dark. The samples were then centrifuged for 1 min and filtered using a 0.45 μm filter into a glass HPLC vial and directly analysed by HPLC.
DMB-labelled samples were analysed by injecting 10 μl onto a Luna 5 μm C-18(2) LC column 250×4.6 mm (Phenomenex) at 1 ml/min. Mobile phases methanol/acetonitrile/water were used for separation of fluorescently labelled sialic acids. The settings of the fluorescence detector were 373 nm excitation and 448 nm emission. […]
Electrospray ionisation spray mass spectrometry (ESI-MS) analysis was performed using the Applied Biosystems 4000 Q-TRAP. The full 100 μl reaction was diluted with 500 ul of 50% Acetonitrile and 0.1% formic acid and samples analysed in negative ion mode using direct injection.

## CC(=O)N[C@H]1C2OC(C(=O)O)(C[C@@H]1O)O[C@@H]2[C@H](O)CO (stereo partly shown) [2,7-anhydro-Neu5Ac]
  2,7-anhydro-Neu5Ac:Neu5Ac ratio after enzymatic reaction (MS): 1:2
